These are yes or no findings as the source states them, for the method shown. Binding seen in cells or lysates may run through a third protein. A yes stands for co-enrichment or nearness to the bait. Other partners may have been found.
Target: Myc-tagged WT-PKCα (human) (UniProt P17252)
Assay: affinity purification with mass spectrometry; Myc-PKCα WT, D463H or D463N from transfected U87MG cells captured on Myc-trap agarose; lysis in 20 mM Tris pH 8.0, 130 mM NaCl, 1% Triton X-100, 1 mM DTT, 10 mM NaF; bead-associated kinase reaction with 1 mM Mg-ATP before SDS-PAGE; label-free quantitation (MaxQuant LFQ); proteins found in empty-vector controls excluded

Amino acid sequences for entries named in this document (tags omitted).
UniProt P08758: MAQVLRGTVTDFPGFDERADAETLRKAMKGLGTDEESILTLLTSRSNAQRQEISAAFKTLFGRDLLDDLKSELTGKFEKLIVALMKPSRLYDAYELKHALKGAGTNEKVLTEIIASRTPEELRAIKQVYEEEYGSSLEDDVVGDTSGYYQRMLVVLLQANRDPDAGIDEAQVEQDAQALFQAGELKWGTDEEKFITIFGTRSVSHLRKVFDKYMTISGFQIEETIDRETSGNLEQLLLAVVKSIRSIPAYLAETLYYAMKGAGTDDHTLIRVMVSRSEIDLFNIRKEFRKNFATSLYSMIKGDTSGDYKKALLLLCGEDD

binding	Substance
binds	PKCγ (from UniProt P05129 1-697)
binds	annexin V (from UniProt P08758 1-320)

Source: publication PMC7618404
